{"source": "PubChem BioAssay AID1159584, Peter MacCallum Cancer Centre, 2016", "test": "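Knock-downs that harm CDH1-null cells more than parental MCF10A cells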 (primary screen)", "system": "human MCF10A breast epithelial cells, parental and CDH1-null", "knock-down reagent": "siRNA against human genes", "measured": "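ATP luminescence (CellTiter-Glo) viability per line relative to mean mock wells over all plates, and the ratio of CDH1-null to parental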", "direction": "CDH1-null / parental viability ratio: higher = CDH1-null cells survive relatively better than parental; CDH1-null viability vs mock: higher = more viable CDH1-null cells", "units": "CDH1-null viability vs mock in fraction of mock", "note": "In all, the deposit lists about 18,000 reagents; this is a part drawn at random. Further read-outs or replicates are left out here. Reagent sequences are not shown. Not stated in the record: the amount of reagent, the time to read-out."}
{"gene symbol":"HHEX (hematopoietically expressed homeobox)","CDH1-null / parental viability ratio":0.68,"CDH1-null viability vs mock":0.57}
{"gene symbol":"BPTF (bromodomain PHD finger transcription factor)","CDH1-null / parental viability ratio":1.32,"CDH1-null viability vs mock":0.5}
{"gene symbol":"MOG (myelin oligodendrocyte glycoprotein)","CDH1-null / parental viability ratio":1.5,"CDH1-null viability vs mock":0.75}
{"gene symbol":"ZNF385D (zinc finger protein 385D)","CDH1-null / parental viability ratio":1,"CDH1-null viability vs mock":0.84}
{"gene symbol":"ABCG2 (ATP binding cassette subfamily G member 2 (JR blood group))","CDH1-null / parental viability ratio":1.06,"CDH1-null viability vs mock":1.02}
{"gene symbol":"SZRD1 (SUZ RNA binding domain containing 1)","CDH1-null / parental viability ratio":0.87,"CDH1-null viability vs mock":0.62}
{"gene symbol":"RXFP4 (relaxin family peptide/INSL5 receptor 4)","CDH1-null / parental viability ratio":1.37,"CDH1-null viability vs mock":1.04}
{"gene symbol":"MPHOSPH8 (M-phase phosphoprotein 8)","CDH1-null / parental viability ratio":1,"CDH1-null viability vs mock":0.85}

The list goes on; the last 2 above are carried over.
{"gene symbol":"RXFP4 (relaxin family peptide/INSL5 receptor 4)","CDH1-null / parental viability ratio":1.37,"CDH1-null viability vs mock":1.04}
{"gene symbol":"MPHOSPH8 (M-phase phosphoprotein 8)","CDH1-null / parental viability ratio":1,"CDH1-null viability vs mock":0.85}
{"gene symbol":"MFN1 (mitofusin 1)","CDH1-null / parental viability ratio":1.12,"CDH1-null viability vs mock":0.92}
{"gene symbol":"H3C8 (H3 clustered histone 8)","CDH1-null / parental viability ratio":0.93,"CDH1-null viability vs mock":0.78}
{"gene symbol":"TMEM176B (transmembrane protein 176B)","CDH1-null / parental viability ratio":0.99,"CDH1-null viability vs mock":0.89}
{"gene symbol":"UNC79 (unc-79 subunit of NALCN channel complex)","CDH1-null / parental viability ratio":1.24,"CDH1-null viability vs mock":0.57}
{"gene symbol":"CDKN3 (cyclin dependent kinase inhibitor 3)","CDH1-null / parental viability ratio":1.38,"CDH1-null viability vs mock":0.94}
{"gene symbol":"GPR6 (G protein-coupled receptor 6)","CDH1-null / parental viability ratio":0.62,"CDH1-null viability vs mock":0.62}
